Experimental data as given in patent US20050215770A1.
Numbering of substitutions follows the chain as printed. Results are given in words; binding and its absence hold for the method and conditions named. Some entries that bind do so weakly or less than the wild type. Where a sequence is shown, tags or fusion partners need not be part of it. Each block holds one binder with its values, some of them ahead of it.

Tests used:
[1] = biological target: T1, Recombinant soluble human Flag-tagged NogoR (amino acids 1 to 309 of SEQ ID NO:2) (human) (UniProt Q9BZR6); experiment: ECL phage screen (Example 1)
T1 sequence (chain, biotinylated with Sulfo-NHS-LC-Biotin): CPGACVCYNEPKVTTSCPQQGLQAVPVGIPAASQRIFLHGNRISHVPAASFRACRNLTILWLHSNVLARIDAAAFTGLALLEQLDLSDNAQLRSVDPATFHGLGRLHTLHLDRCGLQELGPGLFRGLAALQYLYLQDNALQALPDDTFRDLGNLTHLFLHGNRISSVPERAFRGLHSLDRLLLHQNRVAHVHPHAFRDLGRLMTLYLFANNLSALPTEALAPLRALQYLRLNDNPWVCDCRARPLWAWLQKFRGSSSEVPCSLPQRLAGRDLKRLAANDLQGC

[2] = biological target: T1, Recombinant soluble human Flag-tagged NogoR (amino acids 1 to 309 of SEQ ID NO:2) (human); experiment: ECL phage screen on biotin-rHuNOGOSR-Flag (positive: 5-fold above background)

B1: NGE2061 (scFv)
scFv: QVQLQQSGPGLVKPSQTLSLTCAISGDSVSSNSAAWNWIRQSPSRGLEWLGRTYYRSQWHNDFAPFVQSRIAVNPDTSKNQFSLHLKFVTSEDTAVYYCARDPPDDQGFDIWGRTMVTVSSGGGGSGGGGSGGGGSDVVMTQSPSSLSASVGDRVAITCRASQGISNYLAWYQQKPGKAPKLLIYKASTLESGVPSRFSGSGSGTEFTLTISSLQPDDFATYYCQQYSNYPLTFGGGTKLEIKR
binding [1]: binds | binding [2]: binds

B3: NGE2072 (scFv)
scFv: QMQLVQSGGGVVQPGRSLRLSCAASGFTFSSYGMHWVRQAPGKGLEWVATIWYDGTKYYSDSVKGRFTISRDNSKNTLYLEMNSLRGEDTAVYYCVRTSTIVGAKSFDYWGRGTLVTVSSGGGGSGGGGSGGGGSQSVLTQPASVSGSPGQSITISCTGTSSDVGGYNYVSWYQQHPGKAPKLMIYEGSKRPSGVSNRFSGSKSGNTASLTISGLQAEDEADYYCSSYTTRSTRVFGGGTKLTVLG
binding [1]: binds | binding [2]: binds

B4: NGE2435 (scFv)
scFv: QVQLQESGPGLVKPSETLSLTCVVSGGSISSSNWWSWVRQPPRKGLEWIGEIYHSGSPNYNPSLKSRVTISVDKSKNQFSLKLSSVTPADTAVYYCARQWEGIPSWGKGTLVTVSSGGGGSGGGGSGGGGSSELTQDPAVSVALGQTVRITCQGDSLRSYYASWYQQKPGQAPVLVIYGKNNRPSGIPDRFSGSSSGNTASLTITGAQAEDEADYYCNSWDSSGNHVVFGGGTKLTVLG
binding [1]: binds | binding [2]: binds

B9: NGE2131 (scFv)
scFv: QVTLKESGPGLVKPSETLSLTCTVSGGSISSSSYYWGWIRQPPGKGLEWIGSIYYSGNTYDNPSLKSRLTMSVDTSRNQFSLKLSSVTAADTAVYYCARQRYNSAWFPYYFDLWGRGTLVTVSSGGGGSGGGGSGGGGSDIQMTQSPSTLSASIGDRVTITCRASEGIYHWLAWYQQKPGKAPKLLIYKASSLASGAPSRFSGSGSGTDFTLTISSLQPDDFATYYCQRYSNYPLTFGGGTKLEIKR
binding [1]: binds | binding [2]: binds

B10: NGE2001 (scFv)
scFv: EVQLVQSGGVVVQPGGSLRLSCAASGFTFDDYAMHWVRQAPGKGLEWVSLISWDGGSTYYADSVKGRFTISRDNSKNSLYLQMNSLRAEDTALYYCAKDLNYDFWSGSGMDVWGQGTLVTVSSGGGGSGGGGSGGGGSDVVMTQSPSSLSASLGDRVTITCRASQDITNDLAWYQQKPGKAPKLLIYGASTLQYGVPTRFSGSGSGTNFSLTISSLQPEDFATYYCQQYNSYPLTFGGGTKVEIKR
binding [1]: binds | binding [2]: binds

B11: NGE2164 (scFv)
scFv: EVQLVQSGGGLLQPGRSLRLSCAASGFTFSSYSMNWVRQAPGKGPEWVSAISGSGGSTYYADSVKGRFTISRDNSKNTLYLQMNSLRAEDTAVYYCAKASPATLEWLFPYYYYMDAWGRGTLVTVSSGGGGSGGGGSGGGGSDIVMTQSPSTLSASVGDRVTITCRASQGISSWLAWYQQRPGRAPKVLIYKASTLESGVPSRFSGSGSGTDFTLTISSLQPEDFATYYCQQSYSTPWTFGQGTKLEIKR
binding [1]: binds | binding [2]: binds

B13: NGE2014 (scFv)
scFv: QVQLVQSGGVVVQPGGSLRLSCAASGFTFDDYAMHWVRQAPGKGLEWVSLISWDGGSTYYADSVKGRFTISRDNSKNSLYLQMNSLRAEDTALYYCAKDLNYDFWSSSGMDVWGKGTLVTVSSGGGGSGGGGSGGGGSQSVLTQPASVSGSPGQSITISCTGTSSDVGGYNYVSWYQQHPGKAPKLMIYEGSKRPSGVSNRFSGSKSGNTASLTISGLQAEDEADYYCSSYTSSSTLVFGGGTKLTVLG
binding [1]: binds | binding [2]: binds

B15: NGE2108 (scFv)
scFv: B13 scFv with Q6E, V10G, V11L, A24T, S107G, S108T, S233T, S234R, L237R
binding [1]: binds | binding [2]: binds

B16: NGE2433 (scFv)
scFv: B13 scFv with S107G, S108L, K115Q, S233T, S234R, L237R
binding [1]: binds | binding [2]: binds

B18: NGE2258 (scFv)
scFv: QMQLVQSGGGLVKSGGSLRLSCAASGFTFSDYYMSWVRQAPGKGLEWISYISSSGSIIYYADSVRGRFTISRDNADNSLYLHMNSLRADDTAVYYCARDPQGYTATRDSWFDPWGQGTMVTVSSGGGGSGGGGSGGGGSQSVLTQPASVSGSPGRSITISCTGTSSDVGGYNYVSWYQQHPGKAPKLMIYEGSKRPSGVSNRFSGSKSGNTASLTISGLQAEDEADYYCSSYTTRSTRVFGGGTKLTVLG
binding [1]: binds | binding [2]: binds

Results, then the binder that gave them:

binding [1]: binds | binding [2]: binds
B2: NGE2446 (scFv)
scFv: QVQLQQSGPGLVRPSETLSLTCAVYGESLTGYYWSWIRQAPGQGLEWIGEINHSETTNYNPSLKSRLTISVDTSKNQFSLKLTSVTAADTAVYYCARGGTLLGYWGRGTLVTVSSGGGGSGGGGSGGGGSSELTQDPAVSVALGQTVRITCQGDSLRSYYASWYQQKPGQAPVLVIYGKNNRPSGIPDRFSGSSSGNTASLTITGAQAEDEADYYCNSRDSSGNHVVFGGGTKLTVLG

binding [1]: binds | binding [2]: binds
B5: NGE2638 (scFv)
scFv: QVQLVQSGGGLVKPGGSLRLSCAASGFTFSSYEMNWVRQAPGKGLEWVSYISSSGSTIYYADSVKGRFTISRDNAKNSLYLQMNSLRAEDTAVYYCARASGYDGVWGQGTLVTVSSGGGGSGGGGSGGGGSQSVLTQPPSASGTPGQRVTISCSGSSSNVGSNTVNWYQRLPGAAPQLLIYNNDQRPSGIPDRFSGSKSGTSGSLVISGLQSEDEADYYCASWDDSLNGRVFGGGTKLTVLG

binding [1]: binds | binding [2]: binds
B6: NGE2506 (scFv)
scFv: EVQLVESGGGVVQPGRSLRLSCAASGFTFRSYGMHWVRQAPGKGLEWVAGISYDGSNKYYADSVKGRFTISRDNSKNTLYLQMNSLRAEDTAMYYCARDQSVYFGDLAWYFDLWGRGTLVTVSSGGGGSGGGGSGGGGSQSVLTQPPSVSAAPGQKVTISCSGSTSNIGNNYVSWYQQHPGKAPKLMIYDVSKRPSGVPDRFSGSKSGNSASLDISGLQSEDEADYYCAAWDDSLSEFLFGTGTKLTVLG

binding [1]: binds | binding [2]: binds
B7: NGE2458 (scFv)
scFv: QVQLQQSGAEVKKPGSSVTVSCKASGGTFTSYAINWVRQAPGQGLEWMGRTIPDLGIADYAQKFQGRVSITAHKFTNTAYMELSSLKSDDTAVYYCARAPVLMAPGGGMDVWGKGTLVTVSSGGGGSGGGGSGGGGSSELTQDPAVSVALGQTVRITCQGDSLKSYYASWYQQKPGQAPVLVIYGKNNRPSGIPDRFSGSSSGNTASLTITGAQAEDEADYYCNSRDSSGNHVVFGGGTKLTVLG

binding [1]: binds | binding [2]: binds
B8: NGE2439 (scFv)
scFv: EVQLVESGAEVKEPGASVKVSCKASGYTFTGYYMHWVRQAPGQGLEWMGWINPNSGDTHYAQKFQGRVTMTRDTSVSTAYMELSSLRSEDTAVYYCARGRSRYDFWSGYYGGDYDYYYIDVWGQGTTVTVSSGGGGSGGGGSGGGGSSELTQDPAVSVALGQTVRITCQGDSLRSYYASWYQQKPGQAPVLVIYGKDNRPSGIPDRFSGSSSGNTASLTITGAQAEDEADYYCNSRDSSGNHVVFGGGTKLTVLG

binding [1]: binds | binding [2]: binds
B12: NGE2447 (scFv)
scFv: B11 scFv with L12V, R16G, A116V, R119Q, L122T, R181K

binding [1]: binds | binding [2]: binds
B14: NGE2527 (scFv)
scFv: B13 scFv with V11L, K98T, S107G, G109S, L118M, T163A, S233T, S234R, L237R

binding [1]: binds | binding [2]: binds
B17: NGE2445 (scFv)
scFv: B13 scFv with Q1E, S107G, S108L, K115Q, G217E, S233T, S234R, L237R
